From patent US20140186359A1
No constants are given. Whether binding was seen depends on the method and setting. Some entries that bind do so weakly or less than the wild type.

Amino acid sequences for entries named in this document (tags omitted). A change or cut given only in a name is not applied to a line headed by its entry.
UniProt Q14444: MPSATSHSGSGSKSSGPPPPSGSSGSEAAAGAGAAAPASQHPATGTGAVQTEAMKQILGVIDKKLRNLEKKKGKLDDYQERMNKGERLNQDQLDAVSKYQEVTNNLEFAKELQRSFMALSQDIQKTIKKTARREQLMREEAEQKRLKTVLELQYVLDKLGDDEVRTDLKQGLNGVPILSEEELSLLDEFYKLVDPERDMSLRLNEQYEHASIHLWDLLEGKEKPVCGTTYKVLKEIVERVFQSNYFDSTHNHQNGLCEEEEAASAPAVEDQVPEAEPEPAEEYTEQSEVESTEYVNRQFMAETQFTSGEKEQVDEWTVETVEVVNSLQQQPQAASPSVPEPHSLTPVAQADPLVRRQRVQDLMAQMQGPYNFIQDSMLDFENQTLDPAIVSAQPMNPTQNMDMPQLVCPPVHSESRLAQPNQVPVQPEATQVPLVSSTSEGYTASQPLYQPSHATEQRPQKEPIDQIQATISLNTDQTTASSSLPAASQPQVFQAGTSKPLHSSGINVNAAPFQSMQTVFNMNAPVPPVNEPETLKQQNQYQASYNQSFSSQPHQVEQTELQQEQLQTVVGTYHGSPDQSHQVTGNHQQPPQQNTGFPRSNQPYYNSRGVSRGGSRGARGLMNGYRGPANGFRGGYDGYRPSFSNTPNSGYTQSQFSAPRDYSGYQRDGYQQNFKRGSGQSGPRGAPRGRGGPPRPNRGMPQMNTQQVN

Legend:
[1] = biological target: human CAPRIN-1 expressed on the surface of human cancer cells (human) (UniProt Q14444); test: flow cytometry, MDA-MB-231V cells, hybridoma supernatant
[2] = biological target: human CAPRIN-1 expressed on the surface of human cancer cells (human) (UniProt Q14444); test: flow cytometry on human cancer cell lines

| Binder | binding [1] | binding [2] |
| --- | --- | --- |
| chicken monoclonal antibody #3 (antibody, V domains shown) VH: AVTLDESGGGLQTPGGGLSLVCKGSGFTFSSFGMFWVRQAPGKGLEFVASISDNGRSTYYGSAVKGRATISRDDGQSTVRLQLNNLRAEDTGTYYCAKNAYVGRGCCFSYSIDAWGHGTEVIVS VL: ALTQPASVSVNPGETVKITCSGGGSSSDAYGWYQQKSPGSAPVTLIYNGSNRPSHIPSRFSGSTSGSTNTLTITGVQVEDEAIYFCGSTDTSTSVGIFGAGTTLTV | binds | binds |
| chicken monoclonal antibody #4 (antibody, V domains shown) VH: AVTLDESGGGLQTPGGAVSLVCKGSGFTFSSYGMGWVRQAPGKGLEYVAAIRKDGSTNYGPAVKGRATISRDNGQSTVRLQLSNLRAEDTATYYCAKRSHTGVNAAKIDAWGRGTEVIVS VL: ALTQPASVSANPGETVKITCSGASHNYGWFQQKSPGSAPVTVIYSNDKRPSDIPSRFSGSKSGSTATLTITGVQADDEAVYFCGGYNIYGPTFGAGTTLTV | binds | binds |
| chicken monoclonal antibody #1 (antibody, V domains shown) VH: AVTLDESGGGLQTPGGALSLVCKASGFTFRSHSMFWVRQAPGKGLEYVAGIYGVGRSIRYGSAVKGRATMSRDNGQSTVRLQLNNLRAEDTATYYCAKSGYFSNSRYWDSGAYFIDAWGHGTEVIVS VL: ALTQPASVSANPGETVEITCSGGYSNYGWYQQKSPGSAPVTVIYYNDKRPSDIPSRFSGSKSGSTATLTITGVQAEDEAVYFCGGYDSSTDAGIFGAGTTLTV | binds | binds |
